# Data published in US20050215770A1.
# Results are given in words; binding and its absence hold for the method and conditions named. Some results given as binding are weak or reduced against the parent protein; the word gives no strength. Where a sequence is shown, tags or fusion partners need not be part of it.
# B1: NGE2001 (scFv)
# scFv: EVQLVQSGGVVVQPGGSLRLSCAASGFTFDDYAMHWVRQAPGKGLEWVSLISWDGGSTYYADSVKGRFTISRDNSKNSLYLQMNSLRAEDTALYYCAKDLNYDFWSGSGMDVWGQGTLVTVSSGGGGSGGGGSGGGGSDVVMTQSPSSLSASLGDRVTITCRASQDITNDLAWYQQKPGKAPKLLIYGASTLQYGVPTRFSGSGSGTNFSLTISSLQPEDFATYYCQQYNSYPLTFGGGTKVEIKR
# B2: NGE2014 (scFv)
# scFv: QVQLVQSGGVVVQPGGSLRLSCAASGFTFDDYAMHWVRQAPGKGLEWVSLISWDGGSTYYADSVKGRFTISRDNSKNSLYLQMNSLRAEDTALYYCAKDLNYDFWSSSGMDVWGKGTLVTVSSGGGGSGGGGSGGGGSQSVLTQPASVSGSPGQSITISCTGTSSDVGGYNYVSWYQQHPGKAPKLMIYEGSKRPSGVSNRFSGSKSGNTASLTISGLQAEDEADYYCSSYTSSSTLVFGGGTKLTVLG
# B3: NGE2061 (scFv)
# scFv: QVQLQQSGPGLVKPSQTLSLTCAISGDSVSSNSAAWNWIRQSPSRGLEWLGRTYYRSQWHNDFAPFVQSRIAVNPDTSKNQFSLHLKFVTSEDTAVYYCARDPPDDQGFDIWGRTMVTVSSGGGGSGGGGSGGGGSDVVMTQSPSSLSASVGDRVAITCRASQGISNYLAWYQQKPGKAPKLLIYKASTLESGVPSRFSGSGSGTEFTLTISSLQPDDFATYYCQQYSNYPLTFGGGTKLEIKR
# B4: NGE2072 (scFv)
# scFv: QMQLVQSGGGVVQPGRSLRLSCAASGFTFSSYGMHWVRQAPGKGLEWVATIWYDGTKYYSDSVKGRFTISRDNSKNTLYLEMNSLRGEDTAVYYCVRTSTIVGAKSFDYWGRGTLVTVSSGGGGSGGGGSGGGGSQSVLTQPASVSGSPGQSITISCTGTSSDVGGYNYVSWYQQHPGKAPKLMIYEGSKRPSGVSNRFSGSKSGNTASLTISGLQAEDEADYYCSSYTTRSTRVFGGGTKLTVLG
# B5: NGE2108 (scFv)
# scFv: QVQLVESGGGLVQPGGSLRLSCATSGFTFDDYAMHWVRQAPGKGLEWVSLISWDGGSTYYADSVKGRFTISRDNSKNSLYLQMNSLRAEDTALYYCAKDLNYDFWSGTGMDVWGKGTLVTVSSGGGGSGGGGSGGGGSQSVLTQPASVSGSPGQSITISCTGTSSDVGGYNYVSWYQQHPGKAPKLMIYEGSKRPSGVSNRFSGSKSGNTASLTISGLQAEDEADYYCSSYTTRSTRVFGGGTKLTVLG
# B6: NGF0114 (scFv)
# scFv: EVQLVQSGAEVKKPGSSVKVSCKASGDTSSEYSITWVRQVPGQGLEWMGGIIPIFGATYYAQNFQGRVTISADESTSTAYMELGSLRSGDTAVYYCATVIPPTIGGVTHDSEGMDVWGRGTLVTVSSGGGGSGGGGSGGGGSAQSVLTQPPSASGTPGQRVTISCSGSSSNIGSNYVYWYQQLPGTAPKLLIYRNNQRPSGVPDRFSGSKSGTSASLAISGLRSEDEADYYCAAWDDGHNGWVFGGGTKVTVLG
# B7: NGF0115 (scFv)
# scFv: EVQLVQSGAEVKKPGESLRISCKGSGYSFSSYWISWVRQVPGKGLEWMGRIDPSDSYTNYSPSFQGHVTISADKSISTAYLHWSSLKASDTAMYYCATLASADTGMVTDYKYYDMDVWGRGTLVTVSSGGGGSGGGGSGGGGSAQSVVTQPPSVSAAPGQKVTISCSGSNSNIGKNYVSWYQQLPGTAPKLLISDNNARPSGIPDRFSGSKSGASGTLDITGLQTGDEAAYYCKSWDSSLRAEVFGGGTKLTVLG
# B8: NGF0121 (scFv)
# scFv: EVQLVQSGAEVKKSGSSVKVSCKASGDIFTNYAINWVRQAPGQGLEWMGRILPLFGTTNYAQRFQGRITITADESTGTAYMELSSLKSDDTAVYYCARPLSGDYYDTSGYHWWGKGTLVTVSSGGGGSGGGGSGGGGSAQSVLTQPPSASGTPGQRVTISCSGRSGNIGTNAVNWYQQLPGAAPKLIIYSNSQRPSGVPHRFSASRSGTSASLAISGLQSEDEADYYCSAWDDSLDGVVFGGGTKVTVLG
# B9: NGF0134 (scFv)
# scFv: EVQLVQSGAEVKKPGESLKISCKGSGYNITNHWIAWVRQMPGKGLEWMGMIYPDDSDTRYSPSFQGQVTMSADKSINTAHLQWRSLKASDTAMYYCARHAHYDGSGYYYFDYWGKGTMVTVSSGGGGSGGGGSGGGGSAQSVLTQPPSVSGAPGQRVTISCTGSRSNIGAGYDVHWYQQLPGTAPKVLIFGNSNRPSGVLDRFSGSKSGTSASLAITGLQAEDEADYYCRSYDSSMSGSRVFGTGTKVTVLG
# B10: NGF0145 (scFv)
# scFv: QLQLQESGSGLVKPSQTLSLTCAVSGGSISSGDYSWSWIRQPPGKGLEWIGYIYHSGSTYYNPSLKSRVTISIDRSKNQFSLKLSSVTAADTAVYYCARVGDYKEIDAFDIWGKGTLVTVSSGGGGSGGGGSGGGGSAQPVLTQPPSASGTPGQRVTISCSGSSSNIGTNTVNWYQQLPGTAPKLLIYSNTQRPSGVPDRFSGSKSGTSASLAISGLQSEDEADYYCGAWDDSLISGVFGGGTKLTVLG
# B11: NGF0175 (scFv)
# scFv: QVQLQESGPGLVKPSETLSLTCTVSGDSIGSSIYYWAWIRQPPGKGLEWIGRIYYSGTTNYNPSLKSRVTMSVDTSKNQFSLKLSSVTAADTAVYYCARSKGTKWERREFDYWGRGTMVTVSSGGGGSGGGGSGGGGSAQAVLTQPSSASGTPGQTVTISCSGSSSNIGSNPAHWYQQFPGTAPTLIIYYDGRRPSGVPDRFSGSKSGTSASLAISGLQSEDEADFYCASWDDNLNEYVFGTGTKVTVLG
# B12: NGF0186 (scFv)
# scFv: QVQLVQSGGGLLQPGRSLRLSCAGSGFSFRDHALSWFRQAPGKGLEWVGFIRSKGYGGTTEYAASMAGRLNISRDDSKSIAYLQVNSLKTEDTAVYYCSRDSDYYASSGMGYAFDMWGKGTMVTVSSGGGGSGGGGSGGGGSAQAVLTQPSSVSGAPGQRVTIPCTGSSSNIGAGYGVHWYQQLPGTAPKLLIYDSDKRPSGVPDRFSGSKSGSSGSLAITGLQPEDEADYYCQSYDSSLSGSNVFGTGTKVTVLG
# B13: NGF0190 (scFv)
# scFv: QVQLQQSGPGLVKPSETLSLTCTVSGDSITSYYWSWVRQPPGKTLEWIGYIFDTRTTKYNPSLKSRVTISADTSKNQFSLKLSSVTAADTAVYYCARDAGTIFDYWGQGTMVTVSSGGGGSGGGGSGGGGSAQSVLTQPPSVSVAAGQTARITCGEANIGRRSVHWYQRRPGQAPLMVIYYDTARRSGIPERFSGSNSGDTATLTISRVEAGDEADYYCQAWDFSSDHPVFGGGTKVTVLG
# B14: NGF0238 (scFv)
# scFv: EVQLVQSGAEVKKPGSSVKVSCKASGGTLSSYAINWVRQAPGQGLEWMGQIIPMFGTMNYAQKFQGRVTISADESTGTAYMELSSLRYDDTATYYCAREVSGTRNYYYYGLDVWGQGTLVTVSSGGGGSGGGGSGGGGSAQAVLTQPSSVSGAPGQRVTIPCTGSSSNIGAGYDVHWYQHLPGTAPKLLIYGNINRPSGVPDRFSGSKSGTSASLAITGLQAEDEADYYCQSYDNRLSVSVVFGGGTQLTVLS
# B15: NGF0259 (scFv)
# scFv: QVQLVQSGGGVVQPGRSLRLSCAASGLSFSSYGMHWVRQAPGKGLEWVAVIWFDGSNKYYADSVKGRFTISRDTSKNTLYLQMNSLRVEDTAVYYCAGEVRGSFGEFDYWGRGTMVTVSSGGGGSGGGGSGGGGSAQSVLTQPPSVSVAPGKTARITCGGNNVESKSVQWYQQKSGQAPVLVIYYNSYRPSGIPERFSGSNSGNTATLTISRVEAGDAADYYCQVWDSTTDHYVFGSGTKVTVLG
# B16: NGF0271 (scFv)
# scFv: QVQLVESGGGLVQPGGSLRLSCAASGFTFSSYWMSWVRQAPGKGLEWVANIKQDGSEKYYVDSVKGRFTISRDNAKSSLYLQMNSLRAEDTAVYYCARPQEPPSSLIAHWGQGTMVTVSSGGGGSGGGGSGGGGSAQSVVTQPPSVSAASGQKVTISCSGRTSNIGNNYVSWYQQIPGTAPKLLLYDNNKRPSGIPDRFSGSKSGTIAILGITGLQTGDEADYFCGVWDSSLSSYVFGSGTKVTVLG
# B17: NGF0282 (scFv)
# scFv: EVQLVESGAEVKKPGASVKVSCKTSGYIFSTYGITWVRQAPGQGLEWMGWISSKNGNTNYAQKFQGRVTMTTDTSTSTAYMELSSLTSDDTAVYYCARDSAYYYDSSGIGNWFDPWGKGTLVTVSSGGGGSGGGGSGGGGSAQAVLTQPSSVSGAPGQRVTISCTGSSSNIGAGYDVHWYQKLPDTGPKLLIFGNVIRPSGVPDRFSGSKSGTSASLAITGLQAEDEAEYFCQSYDTTLSGSVVFGGGTKLTVLG
# B18: NGF0347 (scFv)
# scFv: EVQLVESGAEVKKPGSSVKVSCHVSGGTFGGNAFNWVRQAPGQGLEWMGRVIPIYGTSNYAQRFQGRVSITADESTDTAYMELSSLTSDDTAIYYCARDPGSGPYLSYFDSWGRGTLVTVSSGGGGSGGGGSGGGGSAQAVLTQPSSASGTPGQRVTISCSGTYSNIASNTVNWYQQLPGTAPKLLIYNNRQRPSGVPDRFSGSKSGTSASLAISGLQSEDETDYFCAAWDDALNGYVFGTGTKVTVLG
# B19: NGF0128 (scFv)
# scFv: QVQLQQSGPGLVRPSQTLSLACTVSGDSISSGDYYWTWIRQHPGKGLEWIGYISTRGSPYYNPSFMNRVAISIDSSKNQFSLNLSSVTAADTAVYYCTRETQHTSIFGVIHNWLDPWGQGTLVTVSSGGGGSGGGGSGGGGSAQAVLTQPSSASGTPGQRVSISCSGSSSNIGSNTVNWYQQLPGTAPKLLIYSGNQRPSGVPDRFSGSKSGTSASLAISGLQSEDEADYYCAAWDDSLNNLVFGPGTKVTVLG
# Key:
# [1] = target: T1, Recombinant soluble human Flag-tagged NogoR (amino acids 1 to 309 of SEQ ID NO:2) (human) (UniProt Q9BZR6); experiment: ECL phage screen (Example 1)
# T1 sequence (chain, biotinylated with Sulfo-NHS-LC-Biotin): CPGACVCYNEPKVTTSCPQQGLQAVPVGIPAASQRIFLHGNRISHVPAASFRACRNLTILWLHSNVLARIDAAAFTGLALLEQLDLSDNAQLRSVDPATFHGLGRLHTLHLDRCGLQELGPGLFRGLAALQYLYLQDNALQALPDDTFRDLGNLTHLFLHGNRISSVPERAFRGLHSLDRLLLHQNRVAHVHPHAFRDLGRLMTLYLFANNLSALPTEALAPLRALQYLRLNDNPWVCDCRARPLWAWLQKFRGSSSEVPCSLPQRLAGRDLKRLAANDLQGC
# [2] = target: T1, Recombinant soluble human Flag-tagged NogoR (amino acids 1 to 309 of SEQ ID NO:2) (human); experiment: ECL phage screen on biotin-rHuNOGOSR-Flag (positive: 5-fold above background)
Binder,binding [1],binding [2]
B1,binds,binds
B2,binds,binds
B3,binds,binds
B4,binds,binds
B5,binds,binds
B6,,binds
B7,,binds
B8,,binds
B9,,binds
B10,,binds
B11,,binds
B12,,binds
B13,,binds
B14,,binds
B15,,binds
B16,,binds
B17,,binds
B18,,binds
B19,,binds
